Measurements reported in PubChem BioAssay AID652243 (Drosophila RNAi Screening Center, 2013).
In all, the deposit lists about 24,000 reagents; shown is an unselected part of those that have a named target and a result. In the full data, 246 (1%) got an active call. 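Plates not normalised; calls are printed but the firefly/Renilla ratio behind them is not deposited; fold cut for lowering reported inconsistently.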 Raw values vary from plate to plate and are shown uncorrected. Unmarked entries are inactive. Reagents against one gene are numbered here. A plus sign joins genes that one reagent is predicted to hit. Not given: the amount of reagent.

- Assay: 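Fly regulators of androgen-dependent reporter output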 (primary screen)
- Cell system: Drosophila S2R+ cells
- Reagents: long dsRNA against Drosophila genes
- Time to read-out: 72 h (48 h, then 24 h hormone)
- Treatment: synthetic androgen R1881 at 10 nM for 24 h
- Measured: 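Firefly light from an androgen-responsive reporter and Renilla control light per well, raw and unnormalised, for each of two replicates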
- Direction: firefly reporter light: higher = more light from androgen-responsive reporter; Renilla control light: higher = more constitutive control signal (cell number, transfection)
- Active means: 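Hit when the log firefly-to-Renilla ratio dropped or increased by a fixed fold versus the mean of GFP or LacZ controls across duplicate plates; lowering cut given as 1.5 and as 3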
- Calls: active = hit: reporter lowered or raised; inactive = no hit

target,reagent,"firefly reporter light, replicate 1","firefly reporter light, replicate 2","Renilla control light, replicate 1","Renilla control light, replicate 2"
CG33177,1,5.32e5,6.17e5,3.24e6,3.17e6
MED25,1,5.76e5,4.95e5,1.45e6,1.12e6
MED25,2,1.77e5,2.06e5,6.74e5,3.74e5
EndoGI,1,1.29e5,1.48e5,1.45e6,1.93e6
Vps8,1,84514,1.46e5,1.38e6,2.12e6
TM9SF2,1,9.09e5,8.58e5,1.53e6,1.50e6
CG14024,1,3.23e5,3.38e5,9.31e5,8.29e5
CG14024,2,4.60e5,4.51e5,1.03e6,1.11e6
CG8584,1,3.47e5,3.61e5,1.43e6,1.47e6
CG5274,1,44485,43097,2.98e5,3.72e5
Ets21C,1,1.29e5,1.30e5,8.24e5,9.73e5
Ppa,1,3.50e5,3.96e5,2.31e6,1.82e6
Ppa,2,4.68e5,3.90e5,1.32e6,1.27e6
OdsH,1,5.46e5,4.40e5,3.56e6,3.11e6
CG7912,1,1.48e5,1.32e5,1.87e6,2.34e6
gammaCOP,1,2.07e5,2.13e5,1.35e6,2.36e6
gammaCOP,2,6.29e5,3.75e5,1.47e6,1.65e6
Lcp65Ag3,1,6.26e5,6.68e5,2.48e6,1.53e6
CG18764,1,1.14e5,1.93e5,1.52e6,1.41e6
Thor,1,7.51e5,8.49e5,2.73e6,1.77e6
CG11248,1,55348,77979,2.94e5,5.03e5
GNBP-like3,1,95127,1.27e5,1.66e6,1.89e6
FucTC,1,6.48e5,9.24e5,1.97e6,1.66e6
FucTC,2,8.28e5,7.89e5,1.69e6,1.49e6
sw,1,6.70e5,6.33e5,9.54e5,9.22e5
PolE4,1,2.09e5,2.27e5,1.76e6,1.72e6
CG16736,1,755,404,,
Best3,1,2.04e5,1.63e5,2.08e6,1.73e6
Csl4,1,3.50e5,3.26e5,2.95e6,3.14e6
Csl4,2,8.18e5,8.18e5,1.68e6,1.40e6
CG14609,1,1.46e5,1.60e5,2.39e6,1.93e6
Mpc1,1,1.34e5,1.06e5,8.25e5,7.04e5
COX6B,1,52229,54870,3.76e5,4.53e5
COX6B,2,1.89e5,1.79e5,4.53e5,4.84e5
RpL31,1,2.17e5,1.50e5,1.69e6,1.39e6
RpL31,2,3.01e5,3.11e5,5.99e5,5.99e5
FIG4,1,6.12e5,4.28e5,1.24e6,1.06e6

Not a retest: an excerpt of the list.
target,reagent,"firefly reporter light, replicate 1","firefly reporter light, replicate 2","Renilla control light, replicate 1","Renilla control light, replicate 2"
CG8584,1,3.47e5,3.61e5,1.43e6,1.47e6
CG5274,1,44485,43097,2.98e5,3.72e5
Ets21C,1,1.29e5,1.30e5,8.24e5,9.73e5
Ppa,1,3.50e5,3.96e5,2.31e6,1.82e6
Ppa,2,4.68e5,3.90e5,1.32e6,1.27e6
OdsH,1,5.46e5,4.40e5,3.56e6,3.11e6
CG7912,1,1.48e5,1.32e5,1.87e6,2.34e6
gammaCOP,1,2.07e5,2.13e5,1.35e6,2.36e6
gammaCOP,2,6.29e5,3.75e5,1.47e6,1.65e6
Lcp65Ag3,1,6.26e5,6.68e5,2.48e6,1.53e6
CG18764,1,1.14e5,1.93e5,1.52e6,1.41e6
Thor,1,7.51e5,8.49e5,2.73e6,1.77e6

The list goes on.
target,reagent,"firefly reporter light, replicate 1","firefly reporter light, replicate 2","Renilla control light, replicate 1","Renilla control light, replicate 2"
CG3402,1,1.15e6,8.98e5,1.94e6,1.68e6
CG13594,1,4.97e5,5.13e5,1.39e6,1.47e6
CG13594,2,2.67e5,1.75e5,6.76e5,4.58e5
CG32814,1,5.82e5,5.15e5,1.68e5,1.21e5
CG32814,2,3.67e5,2.98e5,7.04e5,6.07e5
CG15459,1,2.26e5,2.98e5,2.21e6,1.82e6
CG15459,2,6.63e5,7.20e5,7.78e5,7.61e5
CG15459,3,5.75e5,3.48e5,2.65e6,1.19e6
GatC + PolG2,1,9.85e5,7.84e5,1.65e6,1.86e6
CG33331 + CG33332,1,6.20e5,1.28e6,1.69e6,2.24e6
CG33331 + CG33332,2,7.41e5,9.08e5,9.09e5,9.09e5
REG,1,5.03e5,3.68e5,3.24e6,2.62e6
nw,1,1.85e5,1.69e5,3.18e6,3.18e6
nw,2,1.04e6,7.54e5,6.78e5,5.95e5
nw,3,1.25e5,1.01e5,1.35e6,1.35e6
nw,4,7.93e5,9.15e5,9.63e5,1.19e6
nw,5,5.16e5,5.30e5,1.69e6,1.69e6
CG9503,1,3.17e5,4.27e5,3.90e6,4.64e6
CG9503,2,6.90e5,6.16e5,1.65e6,1.61e6
Sas-6,1,1.74e5,1.96e5,2.10e6,2.26e6
Impbeta11 + asRNA:CR43429,1,57787,87191,9.35e5,9.35e5
CG10405,1,1.66e5,1.44e5,2.41e6,2.50e6
por,1,7.51e5,7.01e5,2.71e6,2.57e6
por,2,4.95e5,4.21e5,8.29e5,9.43e5
CG17217,1,2.37e5,2.41e5,1.86e6,2.14e6
Ciz1,1,2.07e5,2.35e5,1.21e6,8.84e5
Ciz1,2,7.72e5,7.80e5,8.25e5,8.94e5
CG4962,1,1.68e5,2.01e5,1.74e6,1.45e6
CheB93b,1,5.33e5,4.78e5,2.71e5,2.70e5
Plap,1,7.56e5,1.11e6,1.71e6,1.62e6
CG9356,1,1.10e5,1.93e5,5.32e5,6.36e5
CG6149,1,1.65e5,1.67e5,1.70e6,1.76e6
CG6984,1,4.13e5,2.84e5,3.46e5,2.68e5
CG14605,1,84796,64969,1.38e6,1.95e6
CG14605,2,4.98e5,7.19e5,1.49e6,1.52e6
Fbxo42,1,1.77e6,4.47e5,2.38e6,1.03e6
Fbxo42,2,7.19e5,7.26e5,1.64e6,1.66e6
